# Structures can show the parent of a compound that is named as a salt. The list shows a part of the results. Most values come without repeats; read them as rough.
# Tested on: Echinococcus multilocularis metacestodes
# Test: vesicle damage (PGI release) relative to positive control DB1127 at 20 µM, DMSO subtracted; higher = more parasite damage
# Details: treatment time 5 days
row,Compound,vesicle damage [%]
1,Cc1ccc(NC(=O)c2ccc(CN3CCN(C)CC3)cc2)cc1Nc1nccc(-c2cccnc2)n1 [Imatinib],13
2,Cc1ccc(C)c(OCCCC(C)(C)C(=O)O)c1 [Gemfibrozil],2.47
3,C[C@]12C=CC(=O)C=C1CC[C@@H]1[C@@H]2C(=O)C[C@@]2(C)[C@H]1CC[C@]2(O)C(=O)CO [Prednisone],-3.53
4,CN1CC2c3ccccc3Oc3ccc(Cl)cc3C2C1 (stereo not given) [Asenapine maleate],7.97
5,CCNC(=O)CCC/C=C\C[C@@H]1[C@@H](/C=C/[C@@H](O)CCc2ccccc2)[C@H](O)C[C@@H]1O [Bimatoprost],-1.73
